## Assay results

From PubChem BioAssay record AID1053133 (Broad Institute, 2014).

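Plate-reader measure of the Venus reporter marking one vaccinia stage in infected cells (the cell line is not named here); read time unknown. The test concentration is not given here. Percent change in Venus reporter signal; lower (more negative) values mean stronger inhibition of that viral stage.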

Values are in %. The controls that fix the scale are not given here. Common to all entries: measured here: Venus reporter, other viral stage. Part of the compounds only, not a random draw; the main read-out is not listed here.

SMILES,activity change (Venus) (%)
O=C(C1CCCCC1)N1CC(=O)N2[C@H](CO)[C@H](c3ccc(C#Cc4cccc(F)c4)cc3)[C@H]2C1,-41.68
C[C@@H]1CN([C@@H](C)CO)C(=O)c2cc(NS(=O)(=O)c3cccs3)ccc2O[C@@H](C)CCCCO[C@@H]1CN(C)CC1CCCCC1,-48.87
C/C=C/c1ccc(C2[C@@H]3CN(S(=O)(=O)c4ccccc4C)C[C@H]2N3)cc1 (some centres undefined),-43.82
C[C@@H]1CN([C@H](C)CO)C(=O)Cc2cc(NC(=O)Nc3ccc(F)cc3)ccc2O[C@H]1CN(C)Cc1ccc(Cl)c(Cl)c1,-27.04
C[C@H]1CN([C@@H](C)CO)C(=O)c2cc(C#Cc3ccccc3F)cnc2O[C@H]1CN(C)C(=O)c1ccc2c(c1)OCO2,-14.15
O=C(C[C@H]1CC[C@H]2[C@@H](COC[C@H](O)CN2C(=O)Nc2ccc(Cl)c(Cl)c2)O1)NCc1ccc(Cl)c(Cl)c1,-74.1
C[C@H]1CN([C@@H](C)CO)C(=O)c2cccc(NC(=O)c3ccncc3)c2O[C@@H]1CN(C)Cc1ccc(Oc2ccccc2)cc1,-40.08
C[C@@H]1CN([C@@H](C)CO)C(=O)c2cc(NS(=O)(=O)c3cccs3)ccc2O[C@@H]1CN(C)Cc1ccc(-c2ccccc2)cc1,-48.39
O=C(Nc1ccc(F)cc1)N1CCCCN2[C@H](CO)[C@@H](c3ccc(-c4ccccc4F)cc3)[C@@H]2C1,-50.58
C[C@@H]1CN([C@H](C)CO)C(=O)c2c(c3ccccc3n2C)-c2ccccc2CO[C@@H]1CN(C)C(=O)Nc1cccc(C(F)(F)F)c1,-49
CC(C)(C)[S@](=O)N1Cc2cc(C(=O)NC3CCC3)nc(-c3cccc(-c4ccccc4F)c3)c2[C@@H]1CCO,-17.16
C[C@@H]1CN([C@@H](C)CO)C(=O)Cc2cc(NC(=O)CCCCCC(=O)Nc3ccccc3N)ccc2O[C@H]1CN(C)Cc1ccc(C(F)(F)F)cc1,-29.34
CN1CCCCN2[C@@H](CO)[C@H](c3ccc(C#Cc4ccccc4F)cc3)[C@@H]2C1,-38.12
O=C(C1CCOCC1)N1CC(=O)N2[C@H](C1)[C@@H](c1ccc(C#Cc3cccc(F)c3)cc1)[C@@H]2CO,-51.12
O=C(Nc1cc(F)ccc1F)N1CC(=O)N2[C@H](CO)[C@@H](c3ccc(C#CC4CCCC4)cc3)[C@H]2C1,-28.55
C[C@@H]1CN([C@@H](C)CO)C(=O)Cc2cc(NS(=O)(=O)c3ccccc3)ccc2O[C@H]1CN(C)CC1CCCCC1,-68.15
C[C@@H]1CN([C@H](C)CO)C(=O)c2cc(NS(=O)(=O)c3ccc(Cl)cc3)ccc2O[C@@H](C)CCCCO[C@H]1CN(C)S(=O)(=O)c1cccs1,-38.81
OC[C@H]1[C@H](c2ccc(C#Cc3ccccc3)cc2)[C@@H]2CN(CC3CCOCC3)CCCCN12,-46.06
COc1ccc(CN(C)C[C@@H]2Oc3c(NC(=O)C4CCCCC4)cccc3C(=O)N([C@H](C)CO)C[C@H]2C)cc1,-38.56
C[C@@H]1CCCCO[C@H](CN(C)CC2CCCCC2)[C@H](C)CN([C@@H](C)CO)C(=O)c2cc(NC(=O)c3ccccc3)ccc2O1,-64.31
C[C@@H]1CN([C@@H](C)CO)C(=O)Cc2cc(NS(=O)(=O)c3ccc(Cl)cc3)ccc2O[C@H]1CN(C)Cc1ccc(Oc2ccccc2)cc1,-59.46
O=C(Nc1ccccc1F)N1CC(=O)N2[C@@H](CO)[C@@H](c3ccc(C#Cc4ccc(F)cc4)cc3)[C@@H]2C1,-48.43
C[C@@H]1CN([C@@H](C)CO)C(=O)c2cc(NS(=O)(=O)c3ccc(Cl)cc3)ccc2O[C@@H](C)CCCCO[C@@H]1CN(C)Cc1ccc2c(c1)OCO2,-64.46
C[C@@H]1CCCCO[C@@H](CN(C)Cc2ccc(C(F)(F)F)cc2)[C@H](C)CN([C@H](C)CO)C(=O)c2cc(NC(=O)c3ccccc3)ccc2O1,-48.35
CCCNC(=O)[C@@]1(c2ccc([N+](=O)[O-])cc2)CC(=O)N(CC23CC4CC(CC(C4)C2)C3)[C@@H]1c1ccc(CO)cc1I,-69.56
N#C[C@@H]1[C@H](c2ccc(-c3cccnc3)cc2)[C@H](CO)N1C(=O)C1CCC1,-29.74
C[C@@H]1CCCCO[C@H](CN(C)Cc2ccc3c(c2)OCO3)[C@@H](C)CN([C@@H](C)CO)C(=O)c2cc(NC(=O)Nc3ccc(C(F)(F)F)cc3)ccc2O1,-38.79
COc1cccc(S(=O)(=O)N2CCCCN3[C@@H](CO)[C@@H](c4ccc(C5=CCCCC5)cc4)[C@@H]3C2)c1,-39.82
CC(C)NC(=O)Nc1ccc2c(c1)CC(=O)N([C@H](C)CO)C[C@@H](C)[C@@H](CN(C)Cc1ccc(-c3ccccc3)cc1)O2,-38.63
C[C@H](CO)N1C[C@H](C)[C@H](CN(C)C(=O)Nc2ccc(C(F)(F)F)cc2)Oc2c(NC(=O)c3ccc(-c4nccs4)cc3)cccc2C1=O,-50.62
CC(C)C#Cc1ccc([C@H]2[C@@H](CO)N3C(=O)CN(C(=O)Cc4ccccc4)C[C@H]23)cc1,-33.13
COc1ccc(C#Cc2ccc([C@H]3[C@H](CO)N4CCCCN(C(=O)Nc5cccc(F)c5)C[C@@H]34)cc2)cc1,-44.04

3 of the entries, repeated:

For COc1cccc(S(=O)(=O)N2CCCCN3[C@@H](CO)[C@@H](c4ccc(C5=CCCCC5)cc4)[C@@H]3C2)c1 the result was activity change (Venus) -39.82%.
For C/C=C/c1ccc(C2[C@@H]3CN(S(=O)(=O)c4ccccc4C)C[C@H]2N3)cc1 (some centres undefined) the result was activity change (Venus) -43.82%.
For C[C@@H]1CN([C@@H](C)CO)C(=O)c2cc(NS(=O)(=O)c3cccs3)ccc2O[C@@H]1CN(C)Cc1ccc(-c2ccccc2)cc1 the result was activity change (Venus) -48.39%.